Measurements published in publication PMC5112516.

Tests used:
Test in all cases: ELISA
Conditions in all cases: 200 nM protein, low salt; ELISA: 10 mM KH2PO4, 50 mM KCl, pH 7, 0.1% Tween 20; recombinant protein; protein details: N-term RGSHHHHHHGS after Met1, C-term LN; label: 3'-biotin on plus strand
Sis7b = test system: Sis7b
[1] = biological target: Ssh7b (Sulfolobus shibatae) (UniProt O59632)
[2] = biological target: Aho7b (Acidianus hospitalis) (UniProt F4B9I5)
[3] = biological target: Aho7a (Acidianus hospitalis) (UniProt F4B991)
Sto7 = test system: Sto7
Sis7a = test system: Sis7a
Mse7 = test system: Mse7
[4] = biological target: T1, Sac7e (Sulfolobus acidocaldarius) (UniProt P13125)
T1 sequence (looked up, limits assumed): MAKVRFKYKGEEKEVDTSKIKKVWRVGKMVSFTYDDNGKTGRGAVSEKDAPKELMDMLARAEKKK

[5] = biological target: Aho7c (Acidianus hospitalis) (UniProt F4B8X5)
Mcu7 = test system: Mcu7
[6] = biological target: Sac7d (Sulfolobus acidocaldarius) (UniProt P13123)
[7] = biological target: Ssh7a (Sulfolobus shibatae) (UniProt P61990)
[8] = biological target: Sso7d (Sulfolobus solfataricus) (UniProt P39476)

Measured: binding result

GCGCGCGCGCGCGCGCGCGCGCGCGCGCGCGCGCGCGCGC (double strand) [[poly(dGdC)]2 40 bp]
binds: Sis7b | [1] | [2] | [3] | Sto7 | Sis7a | Mse7 | [4] | [5] | Mcu7 | [6] | [7] | [8]

AAAAAAAAAAAAAAAAAAAAAAAAAAAAAAAAAAAAAAAA (double strand) [poly(dA).poly(dT) 40 bp]
binds: Sis7b | [1] | [2] | [3] | Sto7 | Sis7a | Mse7 | [4] | [5] | Mcu7 | [6] | [7] | [8]

AGAGAGAGAGAGAGAGAGAGAGAGAGAGAGAGAGAGAGAG (double strand) [poly(dAdG).poly(dCdT) 40 bp]
binds: Sis7b | [1] | [2] | [3] | Sto7 | Sis7a | Mse7 | [4] | [5] | Mcu7 | [6] | [7] | [8]

ATATATATATATATATATATATATATATATATATATATAT (double strand) [[poly(dAdT)]2 40 bp]
binds: Sis7b | [1] | [2] | [3] | Sto7 | Sis7a | Mse7 | [4] | [5] | Mcu7 | [6] | [7] | [8]

ACACACACACACACACACACACACACACACACACACACAC (double strand) [poly(dAdC).poly(dGdT) 40 bp]
binds: Sis7b | [1] | [2] | [3] | Sto7 | Sis7a | Mse7 | [4] | [5] | Mcu7 | [6] | [7] | [8]

Construct, isoform or probe ends are uncertain for at least one entry. At least one verdict rests on a figure or table, not on a statement of the authors. For some assays here: Protein sequences can lack the tags named with them.
